Consider one molecule from patent US20220380482A1.

Chains of the proteins cited; added tags and fusions are not shown. Residues count along the entry.
UniProt Q6UVK1, residues 30-2322: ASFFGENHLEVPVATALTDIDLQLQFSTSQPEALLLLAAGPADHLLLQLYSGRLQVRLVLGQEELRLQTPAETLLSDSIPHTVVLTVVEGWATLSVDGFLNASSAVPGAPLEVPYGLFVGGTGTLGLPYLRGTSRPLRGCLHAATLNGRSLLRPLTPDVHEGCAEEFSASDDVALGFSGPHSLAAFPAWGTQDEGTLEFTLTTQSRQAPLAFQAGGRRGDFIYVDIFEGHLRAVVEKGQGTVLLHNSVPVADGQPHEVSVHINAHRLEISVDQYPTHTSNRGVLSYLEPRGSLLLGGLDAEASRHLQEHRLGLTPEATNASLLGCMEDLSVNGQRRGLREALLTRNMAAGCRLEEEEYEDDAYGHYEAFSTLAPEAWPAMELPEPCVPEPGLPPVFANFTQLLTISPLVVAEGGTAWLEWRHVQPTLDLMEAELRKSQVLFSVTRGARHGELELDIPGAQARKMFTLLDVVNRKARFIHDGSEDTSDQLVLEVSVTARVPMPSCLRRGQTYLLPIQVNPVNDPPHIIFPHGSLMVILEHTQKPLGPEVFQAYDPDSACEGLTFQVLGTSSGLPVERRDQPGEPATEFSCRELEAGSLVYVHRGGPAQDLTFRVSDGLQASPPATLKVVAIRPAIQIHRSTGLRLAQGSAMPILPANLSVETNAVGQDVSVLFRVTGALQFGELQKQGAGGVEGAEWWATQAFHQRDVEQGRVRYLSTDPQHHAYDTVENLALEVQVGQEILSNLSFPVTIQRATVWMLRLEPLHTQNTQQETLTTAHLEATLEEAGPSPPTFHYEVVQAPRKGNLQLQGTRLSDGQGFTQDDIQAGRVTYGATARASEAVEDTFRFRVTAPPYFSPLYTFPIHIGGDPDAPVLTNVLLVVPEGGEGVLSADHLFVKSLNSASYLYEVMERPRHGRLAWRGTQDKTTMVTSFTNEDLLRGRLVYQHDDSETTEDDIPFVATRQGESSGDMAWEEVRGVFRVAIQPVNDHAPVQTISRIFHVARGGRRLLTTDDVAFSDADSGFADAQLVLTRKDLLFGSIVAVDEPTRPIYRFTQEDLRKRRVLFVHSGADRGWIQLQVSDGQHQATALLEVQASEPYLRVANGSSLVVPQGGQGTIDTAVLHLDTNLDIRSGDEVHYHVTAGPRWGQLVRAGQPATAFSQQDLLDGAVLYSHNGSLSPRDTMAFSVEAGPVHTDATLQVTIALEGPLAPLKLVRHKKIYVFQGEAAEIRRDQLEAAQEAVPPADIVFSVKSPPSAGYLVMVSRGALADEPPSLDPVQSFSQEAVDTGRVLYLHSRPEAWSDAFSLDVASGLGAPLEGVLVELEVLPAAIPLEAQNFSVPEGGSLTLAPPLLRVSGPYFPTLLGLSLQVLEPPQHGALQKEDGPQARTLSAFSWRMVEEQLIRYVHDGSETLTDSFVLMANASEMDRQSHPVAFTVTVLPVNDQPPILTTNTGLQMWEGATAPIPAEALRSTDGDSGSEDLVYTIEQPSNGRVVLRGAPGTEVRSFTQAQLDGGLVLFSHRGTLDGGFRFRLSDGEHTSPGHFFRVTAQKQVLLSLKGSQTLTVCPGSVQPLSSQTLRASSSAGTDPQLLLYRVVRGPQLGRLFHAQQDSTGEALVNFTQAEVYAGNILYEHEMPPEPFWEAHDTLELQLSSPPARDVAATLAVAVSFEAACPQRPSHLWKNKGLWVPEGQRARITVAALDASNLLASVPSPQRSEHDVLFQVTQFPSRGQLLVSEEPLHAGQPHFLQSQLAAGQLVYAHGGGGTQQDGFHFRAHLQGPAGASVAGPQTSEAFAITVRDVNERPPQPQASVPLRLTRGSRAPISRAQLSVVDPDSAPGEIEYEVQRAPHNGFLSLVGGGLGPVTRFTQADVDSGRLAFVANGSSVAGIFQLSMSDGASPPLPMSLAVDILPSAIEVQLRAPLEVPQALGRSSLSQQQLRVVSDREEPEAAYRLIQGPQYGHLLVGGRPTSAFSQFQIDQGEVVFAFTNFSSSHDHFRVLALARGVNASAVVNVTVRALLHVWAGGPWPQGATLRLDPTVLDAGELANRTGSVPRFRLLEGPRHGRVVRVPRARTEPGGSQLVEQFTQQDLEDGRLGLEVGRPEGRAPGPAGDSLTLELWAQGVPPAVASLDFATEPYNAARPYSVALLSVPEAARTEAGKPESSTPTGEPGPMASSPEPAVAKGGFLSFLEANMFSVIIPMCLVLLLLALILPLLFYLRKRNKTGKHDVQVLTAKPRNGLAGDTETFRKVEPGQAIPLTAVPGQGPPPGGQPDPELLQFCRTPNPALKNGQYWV

These are yes or no findings as the source states them, for the method shown. Some entries that bind do so weakly or less than the wild type. Where a sequence is shown, tags or fusion partners need not be part of it.

Assay [1] concerns the target HMW-MAA (high molecular weight-melanoma associated antigen) on A375 cells (UniProt Q6UVK1). Briefly: flow cytometry on A375 cells, FITC anti-human IgG or IgE secondary antibody. (A flow cytometer gives signals particle by particle.)
Assay [2] has the same target. Briefly: flow cytometry on A375 cells (express HMW-MAA/CSPG4), FITC goat anti-human IgE secondary antibody, median fluorescence.

B1: huCH IgE 3-His (anti-HMW-MAA IgE 3His) (antibody)
heavy: EVQLVQSGGGLVQPGGSLKLSCAVSGFTFSNYWMNWVRQAPGKGLEWVGEIRLKSNNFGRYYAESVKGRFTISRDDSKNTAYLQMNSLKTEDTAVYYCTSYGNYVGHYFDHWGQGTLVTVSSASTQSPSVFPLTRCCKNIPSNATSVTLGCLATGYFPEPVMVTWDTGSLNGTTMTLPATTLTLSGHYATISLLTVSGAWAKQMFTCRVAHTPSSTDWVDNKTFSVCSRDFTPPTVKILQSSCDGGGHFPPTIQLLCLVSGYTPGTINITWLEDGQVMDVDLSTASTTQEGELASTQSELTLSQKHWLSDRTYTCQVTYQGHTFEDSTKKCADSNPRGVSAYLSRPSPFDLFIRKSPTITCLVVDLAPSKGTVNLTWSRASGKPVNHSTRKEEKQRNGTLTVTSTLPVGHRDWIEGETYQCRVTHPHLPRALMRSTTKTSGPRAAPEVYAFATPEWPGSRDKRTLACLIQNFMPEDISVQWLHNEVQLPDARHSTTQPRKTKGSGFFVFSRLEVTRAEWEQKDEFICRAVHEAAHPSHTVQRAVSVNPGK
light: DIQLTQSPSFLSASVGDRVTITCKASQNVDTNVAWYQQKPGKAPKPLLFSASYRYTGVPSRFSGSGSGTDFTLTISSLQPEDFATYFCQQYNSYPLTFGGGTKVEIKGTVAAPSVFIFPPSDEQLKSGTASVVCLLNNFYPREAKVQWKVDNALQSGNSQESVTEQDSKDSTYSLSSTLTLSKADYEKHKVYACEVTHQGLSSPVTKSFNRGEC
As for B1, the binding entry in assay [1] and in assay [2] was “binds” each time.
